No constants are given. Whether binding was seen depends on the method and setting. In cells and extracts the contact can be indirect. Some results given as binding are weak or reduced against the parent protein; the word gives no strength.
Molecular target: HA-MITA (MITA/STING), wild type (UniProt Q86WV6)
Test: co-IP; […] (20 mM Tris-HCl pH 7.4, 150 mM NaCl, 1 mM EDTA, 1% Triton X-100); […]

Chains of the proteins cited; added tags and fusions are not shown. Residues count along the entry.
UniProt Q86WV6: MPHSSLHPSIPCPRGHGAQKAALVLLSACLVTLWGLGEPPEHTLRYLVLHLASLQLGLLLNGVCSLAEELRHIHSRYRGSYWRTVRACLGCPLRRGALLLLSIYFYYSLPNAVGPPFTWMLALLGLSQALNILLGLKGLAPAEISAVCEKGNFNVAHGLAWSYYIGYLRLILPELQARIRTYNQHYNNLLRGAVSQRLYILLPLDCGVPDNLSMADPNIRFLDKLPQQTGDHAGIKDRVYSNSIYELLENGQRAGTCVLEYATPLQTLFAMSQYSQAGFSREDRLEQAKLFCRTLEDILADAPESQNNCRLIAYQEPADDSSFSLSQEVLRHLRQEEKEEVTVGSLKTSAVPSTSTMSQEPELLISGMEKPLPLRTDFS
UniProt Q13586, residues 23-685: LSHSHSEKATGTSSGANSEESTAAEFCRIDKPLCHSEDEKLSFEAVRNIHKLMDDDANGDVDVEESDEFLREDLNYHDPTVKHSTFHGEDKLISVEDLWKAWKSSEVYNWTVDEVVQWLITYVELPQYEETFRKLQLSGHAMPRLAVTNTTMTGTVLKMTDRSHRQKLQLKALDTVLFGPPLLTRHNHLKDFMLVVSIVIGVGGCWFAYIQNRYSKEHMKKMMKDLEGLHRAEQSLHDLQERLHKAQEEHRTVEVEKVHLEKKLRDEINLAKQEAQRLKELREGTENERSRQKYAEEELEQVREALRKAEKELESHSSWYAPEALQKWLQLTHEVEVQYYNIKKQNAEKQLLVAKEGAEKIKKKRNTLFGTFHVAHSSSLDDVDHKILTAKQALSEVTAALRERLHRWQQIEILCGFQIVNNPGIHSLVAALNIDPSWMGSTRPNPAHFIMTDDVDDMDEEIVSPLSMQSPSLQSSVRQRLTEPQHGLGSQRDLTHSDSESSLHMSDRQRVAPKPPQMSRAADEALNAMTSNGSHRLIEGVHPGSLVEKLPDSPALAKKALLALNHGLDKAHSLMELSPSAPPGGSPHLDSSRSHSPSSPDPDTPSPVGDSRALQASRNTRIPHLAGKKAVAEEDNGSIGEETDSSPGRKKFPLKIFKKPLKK

binding: binds
Substance: STIM1-FLAG (stromal interaction molecule 1) (from UniProt Q13586 23-685)

Reference: PMC12157864
